According to paper PMC6448480, “A Two-Way Proteome Microarray Strategy to Identify Novel Mycobacterium tuberculosis-Human Interactors” (Frontiers in Cellular and Infection Microbiology, 2019):
No constants are given. Whether binding was seen depends on the method and setting. For part of these data: Binding seen in cells or lysates may run through a third protein. Some results given as binding are weak or reduced against the parent protein; the word gives no strength. For part of these data: Tags and fused reporters may be left off the sequences shown.

Chains of the proteins cited; added tags and fusions are not shown.
UniProt O33252: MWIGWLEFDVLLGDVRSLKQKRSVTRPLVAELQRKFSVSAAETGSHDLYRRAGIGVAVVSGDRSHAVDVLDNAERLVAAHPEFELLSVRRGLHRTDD
UniProt P71925: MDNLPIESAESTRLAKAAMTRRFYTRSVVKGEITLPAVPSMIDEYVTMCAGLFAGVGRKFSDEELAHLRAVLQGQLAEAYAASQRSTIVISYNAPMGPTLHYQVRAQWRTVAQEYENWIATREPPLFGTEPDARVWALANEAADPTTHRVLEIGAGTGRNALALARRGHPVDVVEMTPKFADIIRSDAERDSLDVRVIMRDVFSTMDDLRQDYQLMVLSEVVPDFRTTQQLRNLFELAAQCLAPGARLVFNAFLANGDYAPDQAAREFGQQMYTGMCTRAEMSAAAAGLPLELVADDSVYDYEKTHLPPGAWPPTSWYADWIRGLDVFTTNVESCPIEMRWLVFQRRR
UniProt I6Y9H2: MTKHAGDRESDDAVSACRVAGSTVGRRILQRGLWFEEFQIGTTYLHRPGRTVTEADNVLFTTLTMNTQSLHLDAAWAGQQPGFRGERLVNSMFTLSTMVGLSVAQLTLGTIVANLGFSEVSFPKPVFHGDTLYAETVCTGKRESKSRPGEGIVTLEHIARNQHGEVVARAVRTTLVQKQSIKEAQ
UniProt Q15796: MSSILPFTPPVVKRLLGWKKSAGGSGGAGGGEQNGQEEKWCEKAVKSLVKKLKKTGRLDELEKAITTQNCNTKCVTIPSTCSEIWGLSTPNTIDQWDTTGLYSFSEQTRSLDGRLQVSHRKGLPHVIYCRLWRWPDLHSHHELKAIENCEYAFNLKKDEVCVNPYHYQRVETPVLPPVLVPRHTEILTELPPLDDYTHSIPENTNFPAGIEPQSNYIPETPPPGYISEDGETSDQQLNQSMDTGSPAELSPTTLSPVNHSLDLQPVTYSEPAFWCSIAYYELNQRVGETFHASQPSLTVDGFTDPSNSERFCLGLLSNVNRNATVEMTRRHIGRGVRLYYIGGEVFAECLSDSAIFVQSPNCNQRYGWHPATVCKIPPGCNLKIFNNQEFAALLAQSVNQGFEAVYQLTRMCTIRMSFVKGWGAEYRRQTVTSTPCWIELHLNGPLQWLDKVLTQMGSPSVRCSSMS

Legend:
[1] = molecular target: T1, His tagged Rv0577 (Mycobacterium tuberculosis) (UniProt P9WIR3); assay: pull-down; His tagged Mtb proteins incubated with lysate of PMA-differentiated THP-1 cells (HEPES lysis buffer pH 7.5, 150 mM NaCl, 1% TritonX-100); detection by automated capillary electrophoresis (Simple Western); only the target purified
T1 sequence: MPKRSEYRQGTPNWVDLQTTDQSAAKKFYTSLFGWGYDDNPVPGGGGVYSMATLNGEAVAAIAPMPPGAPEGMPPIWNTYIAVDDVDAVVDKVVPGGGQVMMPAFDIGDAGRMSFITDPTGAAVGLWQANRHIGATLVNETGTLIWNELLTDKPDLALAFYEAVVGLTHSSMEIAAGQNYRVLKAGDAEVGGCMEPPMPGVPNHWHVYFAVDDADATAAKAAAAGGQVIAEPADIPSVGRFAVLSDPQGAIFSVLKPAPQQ

[2] = molecular target: His tagged Rv2117 (Mycobacterium tuberculosis) (UniProt O33252); assay: as above
[3] = molecular target: His tagged Rv2423 (Mycobacterium tuberculosis) (UniProt P71925); assay: as above
[4] = molecular target: Rv2499c (Possible oxidase regulatory-related protein) on the Mtb proteome microarray (Mycobacterium tuberculosis (array of proteins from strains H37Rv and CDC1551)) (UniProt I6Y9H2); assay: peptide or protein array; both purified
[5] = molecular target: Rv2423 (Methyltransferase type 12) on the Mtb proteome microarray (Mycobacterium tuberculosis (array of proteins from strains H37Rv and CDC1551)) (UniProt P71925); assay: peptide or protein array; both purified
[6] = molecular target: Rv2117 (Uncharacterized protein) on the Mtb proteome microarray (Mycobacterium tuberculosis (array of proteins from strains H37Rv and CDC1551)) (UniProt O33252); assay: peptide or protein array; both purified

Measured: binding

endogenously expressed SMAD2 (THP-1) (from UniProt Q15796 1-467)
binds: [1] | [2] | [3]

myc-tagged SMAD2 (from UniProt Q15796 1-467)
binds: [4] | [5] | [6]
